# Measurements reported in PubChem BioAssay AID1259308 (NCATS, 2017).
# Aim: 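Genes whose loss raises luciferase production in HEK293 cells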 (primary screen)
# Cell system: human HEK293 embryonic kidney cells stably expressing firefly luciferase (HEK-CMV-Luc2-Hygro)
# Reagent: single siRNA against human genes, 0.8 pmol siRNA per well
# Time to read-out: 72 h
# Read-out: 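Reporter luminescence and viable-cell signal on separate replicate plates, given as percent of non-targeting control and median/MAD z-scores, plus per-cell luciferase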
# Direction: total luciferase, z-score and total luciferase, % of control: higher = more reporter protein produced; luciferase per cell, z-score: higher = more reporter output per viable cell; viable cells, % of control: higher = more viable cells
# Active means: 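Active when the median/MAD z-score for overall luciferase is greater than 3; a gene was taken forward for validation with new siRNAs if at least two of its three siRNAs passed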
# Calls: active = raised luciferase; inactive = no rise
# The whole screen tested about 59,000 reagents; below is a part drawn at random. About 1,510 of them (2.6%) were called active. 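Calls use total luciferase alone and ignore viability, so some active siRNAs may act by altering cell number.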 Unmarked entries are inactive. The numbers tell different reagents against one gene apart. No sequences are given here.
Target gene,siRNA no.,"total luciferase, z-score","total luciferase, % of control","luciferase per cell, z-score","viable cells, % of control"
NCAN (neurocan),1,-1.13,59.5,-0.421,74.3
NCAN (neurocan),2,-0.55,70.9,-0.395,88
NCAN (neurocan),3,3.63 (active),154,3.02,77.6
MRTFB (myocardin related transcription factor B),1,-0.519,71.6,-0.127,82.7
MRTFB (myocardin related transcription factor B),2,-1.47,52.7,-1.37,84.4
MRTFB (myocardin related transcription factor B),3,7.7 (active),235,5.53,61.2
PUDP (pseudouridine 5'-phosphatase),1,-0.545,71,-1.45,116
PUDP (pseudouridine 5'-phosphatase),2,-0.768,66.6,-0.162,77.7
PUDP (pseudouridine 5'-phosphatase),3,-1.05,61,-0.891,86.2
"TAP1 (transporter 1, ATP binding cassette subfamily B member)",1,-0.922,63.6,-1.38,102
"TAP1 (transporter 1, ATP binding cassette subfamily B member)",2,0.331,88.5,-0.206,104
"TAP1 (transporter 1, ATP binding cassette subfamily B member)",3,-1.43,53.5,-1.57,90.5
OR6C6 (olfactory receptor family 6 subfamily C member 6),1,0.732,96.4,0.352,98.2
OR6C6 (olfactory receptor family 6 subfamily C member 6),2,0.22,86.3,-0.0686,98.1
OR6C6 (olfactory receptor family 6 subfamily C member 6),3,0.748,96.8,-0.133,112
FAM240C (family with sequence similarity 240 member C),1,0.454,90.9,-0.337,111
FAM240C (family with sequence similarity 240 member C),2,0.625,94.3,0.114,102
FAM240C (family with sequence similarity 240 member C),3,-0.0536,80.8,-0.986,117
SGIP1 (SH3GL interacting endocytic adaptor 1),1,-2.63,29.5,-3.21,76.8
SGIP1 (SH3GL interacting endocytic adaptor 1),2,0.126,84.4,0.172,90.1
SGIP1 (SH3GL interacting endocytic adaptor 1),3,-0.089,80.1,-0.343,98
RPL6P31 (ribosomal protein L6 pseudogene 31),1,0.0277,82.4,0.000569,92.1
RPL6P31 (ribosomal protein L6 pseudogene 31),2,-0.584,70.3,0.446,69.8
RPL6P31 (ribosomal protein L6 pseudogene 31),3,0.469,91.2,0.194,96.9
FAM89B (family with sequence similarity 89 member B),1,-1.53,51.5,-1.51,85.6
FAM89B (family with sequence similarity 89 member B),2,3.24 (active),146,1.61,107
FAM89B (family with sequence similarity 89 member B),3,0.152,84.9,-0.126,98.1
"RAB36 (RAB36, member RAS oncogene family)",1,-0.535,71.2,-0.161,83.1
"RAB36 (RAB36, member RAS oncogene family)",2,2.33,128,1.22,104
"RAB36 (RAB36, member RAS oncogene family)",3,-0.274,76.4,0.354,77.8
UMAD1 (UBAP1-MVB12-associated (UMA) domain containing 1),1,0.265,87.2,3.17,42.2
UMAD1 (UBAP1-MVB12-associated (UMA) domain containing 1),2,1.64,115,1.57,84.7
UMAD1 (UBAP1-MVB12-associated (UMA) domain containing 1),3,2.38,129,2.52,74.4
ZNF318 (zinc finger protein 318),1,-1.18,58.4,-1.41,94.6
ZNF318 (zinc finger protein 318),2,0.391,89.7,0.113,97.2
ZNF318 (zinc finger protein 318),3,0.594,93.7,-0.221,111
GK2 (glycerol kinase 2),1,2.16,125,2.04,81.6
GK2 (glycerol kinase 2),2,1.41,110,0.757,101
GK2 (glycerol kinase 2),3,-0.298,76,-0.579,98.9
TIMM23B (translocase of inner mitochondrial membrane 23 homolog B),1,-0.621,69.5,0.445,69.1
TIMM23B (translocase of inner mitochondrial membrane 23 homolog B),2,-0.499,72,0.337,73.6
TIMM23B (translocase of inner mitochondrial membrane 23 homolog B),3,-0.173,78.5,-0.13,90.7
TIMM23B (translocase of inner mitochondrial membrane 23 homolog B),4,-0.162,78.7,0.0208,87.4
TIMM23B (translocase of inner mitochondrial membrane 23 homolog B),5,2.94,140,1.99,93
TIMM23B (translocase of inner mitochondrial membrane 23 homolog B),6,-0.0945,80,-0.461,101
TRANK1 (tetratricopeptide repeat and ankyrin repeat containing 1),1,0.324,88.3,-0.496,112
TRANK1 (tetratricopeptide repeat and ankyrin repeat containing 1),2,-1.04,61.3,-1.07,90.8
TRANK1 (tetratricopeptide repeat and ankyrin repeat containing 1),3,1.11,104,0.468,103
CHIC2 (cysteine rich hydrophobic domain 2),1,0.86,99,2,65.4
CHIC2 (cysteine rich hydrophobic domain 2),2,3.08 (active),143,1.79,99.8
CHIC2 (cysteine rich hydrophobic domain 2),3,-0.221,77.5,-0.419,96.7
KRTAP4-4 (keratin associated protein 4-4),1,-1.17,58.5,0.211,61.9
KRTAP4-4 (keratin associated protein 4-4),2,-2.42,33.8,-2.88,80.7
KRTAP4-4 (keratin associated protein 4-4),3,-0.439,73.2,-0.737,99.2
CHMP6 (charged multivesicular body protein 6),1,0.585,93.5,-0.0908,107
CHMP6 (charged multivesicular body protein 6),2,2.63,134,1.55,99.7
CHMP6 (charged multivesicular body protein 6),3,-0.684,68.3,-0.0644,77.6
RUNDC1 (RUN domain containing 1),1,-0.794,66.1,-0.671,88.1
RUNDC1 (RUN domain containing 1),2,-0.76,66.8,-0.958,96
RUNDC1 (RUN domain containing 1),3,-0.882,64.3,-1.17,97.9
"TSFM (Ts translation elongation factor, mitochondrial)",1,0.867,99.1,0.822,89.2
"TSFM (Ts translation elongation factor, mitochondrial)",2,0.5,91.8,1.27,73.4
"TSFM (Ts translation elongation factor, mitochondrial)",3,-0.611,69.7,0.88,61.8
RFX7 (regulatory factor X7),1,-0.119,79.5,-0.17,92.9
RFX7 (regulatory factor X7),2,-0.368,74.6,-0.304,90.3
RFX7 (regulatory factor X7),3,-1.38,54.4,-0.371,67.1
"PFKFB3 (6-phosphofructo-2-kinase/fructose-2,6-biphosphatase 3)",1,-0.904,63.9,0.0505,70.5
"PFKFB3 (6-phosphofructo-2-kinase/fructose-2,6-biphosphatase 3)",2,-0.169,78.5,-0.665,105
"PFKFB3 (6-phosphofructo-2-kinase/fructose-2,6-biphosphatase 3)",3,-0.751,66.9,-0.209,79
RANGAP1 (Ran GTPase activating protein 1),1,1.32,108,0.514,105
RANGAP1 (Ran GTPase activating protein 1),2,0.576,93.3,0.711,86.5
RANGAP1 (Ran GTPase activating protein 1),3,1.04,103,0.881,90.9
TICAM1 (TIR domain containing adaptor molecule 1),1,-0.794,66.1,-1.34,105
TICAM1 (TIR domain containing adaptor molecule 1),2,-2.04,41.2,-2.55,90.3
TICAM1 (TIR domain containing adaptor molecule 1),3,3.06 (active),143,3.66,60.8
